The text below walks through data of PubChem BioAssay AID445 (National Center for Advancing Translational Sciences (NCATS), 2006).

Molecules are shown by their SMILES. This is one part of the list. Further columns of the screen follow, without active or inactive calls. Compounds called inactive in the main read-out are mostly missing here. Potencies come from curve fits of mixed quality, noted in brackets.

The test can be described thus: IkB Signaling. The conditions noted are these: ABC-DLBCL IkBa-CBG/CBR dual luciferase ratio (green luciferase fused to IkBa over red control in OCI-Ly3 lymphoma cells), 4 h; measured here: control luc red channel unless noted. An outline of the steps:
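Curves were fitted separately to fusion (green), unfused (red) and ratio luminescence, then classed by r2, magnitude and activity. Cells: OCI-Ly3, 4 h compound plus doxycycline at 37C; 10 uM MG-132 defined full response.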
Turning to `O=C(NCc1ccccn1)c1cc(S(=O)(=O)N2CCN(c3ccccc3)CC2)ccc1Cl`, the AC50 is 15.8 µM [falling, partial curve].

As for `Cn1c(CSc2nc3ccccc3s2)nc2ccccc21`, the AC50 was 39.8 µM [falling, single point].

Turning to `COCC(C)n1c(C)cc(C(=O)COC(=O)c2c(C)nn(-c3ccccc3)c2C)c1C` (centres undefined), the AC50 was 12.6 µM [falling, partial curve].

For `Cc1ccc2c(c1)sc1nc(-c3cc4ccccc4oc3=O)cn12`, the AC50 is 0.158 µM [falling, full curve].

Regarding `CCOC(=O)c1ccccc1NC(=O)CN1C(=O)CC(c2ccco2)Sc2ccccc21` (centres undefined), the AC50 was 0.316 µM [falling, full curve].

`CCOC(=O)Cn1c(CN(Cc2ccccc2)Cc2ccccc2)nc2c1c(=O)n(C)c(=O)n2C`: the concentration at half-maximal activity (AC50) is 15.8 µM [falling, partial curve].

Turning to `O=C(c1ccc2c(c1)N(Cc1ccc(Cl)cc1)C(=O)c1ccccc1S2=O)N1CCN(c2ccccc2F)CC1` (centres undefined), the concentration at half-maximal activity (AC50) was 20 µM [falling, partial curve].

Consider `O=C(c1ccc(F)cc1)N1CCC(c2nc3ccccc3o2)CC1`, for which the half-maximal activity concentration (AC50) is 3.16 µM [falling, single point].

With `CC(C)NC(=O)CC(=O)Nc1ccc2nc3n(c(=O)c2c1)CCCCC3`, the AC50 was 0.0501 µM [falling, full curve, poor fit].

Regarding `CCOc1ccccc1NC(=O)C(NS(=O)(=O)c1ccc2c(c1)CCC(=O)N2)c1ccccc1` (centres undefined), the concentration at half-maximal activity (AC50) was 20 µM [falling, partial curve].

As to `O=C(NC1CCCCCC1)c1cc2c(Cl)nc3ccccc3c2s1`, the AC50 was 3.16 µM [rising, full curve].

With `CC(C)(C)c1ccc(Oc2nc3ccccn3c(=O)c2/C=C(\C#N)c2nc3ccccc3[nH]2)cc1`, the AC50 was 25.1 µM [falling, single point].

`COc1ccc(CNC(=O)c2ccc3c(c2)N(C)C(=O)C2CCCCN32)cc1OC` (centres undefined): the AC50 is 12.6 µM [falling, partial curve, poor fit].

Take `CCCCOc1ccc(C(=O)N2CCC(c3nc4ccccc4o3)CC2)cc1`: the AC50 was 15.8 µM [falling, partial curve].

As for `Cc1nn(C(=O)COc2ccccc2)c(C)c1Sc1ccccc1`, the concentration at half-maximal activity (AC50) is 25.1 µM [falling, single point].

As for `CCOc1ccc(CC(=O)NCCc2csc(-c3ccc(C(F)(F)F)cc3)n2)cc1`, the AC50 is 1.26 µM [rising, full curve, poor fit].

For the compound `Cc1c(C)n(C)c2ccc(C(=O)NCc3cccs3)cc12`, the AC50 was 39.8 µM [falling, single point].

In the case of `CCN(c1cccc(C)c1)S(=O)(=O)c1ccc2c(c1)NC(=O)CCS2`, the AC50 was 0.0316 µM [falling, full curve].

For the compound `Cc1c(Cl)cccc1Nc1nn2c(=O)c3ccc(C(=O)NCCc4ccccc4)cc3nc2s1`, the half-maximal activity concentration (AC50) was 20 µM [falling, partial curve].

With `O=C(c1cc(-c2ccc3c(c2)OCO3)on1)N1CCN(c2ccc(F)cc2)CC1`, the AC50 was 0.631 µM [falling, full curve, poor fit].

Turning to `O=C(NC1CC(=O)N(c2ccccc2)C1)c1ccc(Br)o1` (centres undefined), the AC50 was 5.01 µM [falling, single point].

With `Cc1cccc(N(CC(=O)NCCSCc2ccc(Cl)cc2)S(C)(=O)=O)c1C`, the concentration at half-maximal activity (AC50) was 20 µM [falling, partial curve].

In the case of `CCOc1ccc(NC(=O)c2cc3c(n(-c4ccc(OC)cc4)c2=O)CC(C)(C)CC3=O)cc1`, the AC50 was 12.6 µM [falling, partial curve].

As for `Cc1nn(Cc2ccc(C(=O)N3c4ccc(F)cc4CCC3C)o2)c(C)c1Br` (centres undefined), the AC50 was 15.8 µM [falling, partial curve].

On to `CCOC(=O)Cn1c(=O)oc2cc(S(=O)(=O)N3CCN(c4ccccc4F)CC3)ccc21`, for which the AC50 is 15.8 µM [falling, partial curve].

Take `CCOC(=O)c1ccc2c(c1)N(CC(=O)Nc1ccc(C)cc1C)C(=O)c1ccccc1S2`: the AC50 is 5.01 µM [falling, full curve, poor fit].

On to `CCn1cc(C(=O)NCCCN(CC(C)C)CC(C)C)c(=O)c2cc(S(=O)(=O)N(C)C3CCCCC3)ccc21`, for which the AC50 was 6.31 µM [falling, partial curve].

As for `COc1ccc(NC(=O)CCc2nnc3n(C)c(=O)c4sccc4n23)cc1Cl`, the concentration at half-maximal activity (AC50) is 10 µM [falling, single point].

Consider `O=S(=O)(c1ccccc1F)N1CCC(Oc2ccc(-n3cnnn3)cc2)CC1`, for which the concentration at half-maximal activity (AC50) was 15.8 µM [falling, partial curve].

Take `O=C1CC(N2CCN(C/C=C/c3ccccc3)CC2)C(=O)N1CCc1ccccc1` (centres undefined): the AC50 was 20 µM [falling, partial curve].

As to `Cc1ccc(-c2nc(CSCC(=O)NCCN3CCN(Cc4ccccc4)CC3)c(C)o2)cc1`, the half-maximal activity concentration (AC50) is 12.6 µM [falling, partial curve].

On to `CN(CCc1ccc(Cl)c(Cl)c1)C[C@@H](O)COc1ccc(NS(C)(=O)=O)cc1`, for which the concentration at half-maximal activity (AC50) was 39.8 µM [falling, partial curve].

Consider `COc1cccc(CNc2nc3c(-c4ccccc4)nnn3c3ccccc23)c1`, for which the half-maximal activity concentration (AC50) is 3.16 µM [falling, partial curve].

For the compound `COc1ccc(CCNC(=O)Cn2c(=O)n(-c3cc(OC)c(OC)c(OC)c3)c(=O)c3ccccc32)cc1OC`, the concentration at half-maximal activity (AC50) was 0.0316 µM [falling, full curve, poor fit].

For the compound `Cc1ccc2oc(=O)c3cnn(CC(=O)N4CCN(c5cc(Cl)ccc5C)CC4)c3c2c1`, the concentration at half-maximal activity (AC50) is 20 µM [falling, partial curve].

On to `CCOc1ccc(CCNCc2c(C(=O)O)n(Cc3ccc(C)cc3)c3cc(OC)ccc23)cc1`, for which the AC50 was 31.6 µM [falling, single point].

In the case of `CN(Cc1ccccc1)C(=O)CSc1nc2ccsc2c(=O)n1-c1ccc(F)cc1`, the AC50 was 3.16 µM [rising, partial curve].

Consider `Cc1cccc(NC(=O)c2sc3nc(-c4ccc(F)cc4)cn3c2C)n1`, for which the AC50 is 5.01 µM [falling, full curve].

As for `CCN(CC(=O)Nc1ccc2c(c1)OCCO2)Cc1cc(=O)oc2c(C)c(C)ccc12`, the half-maximal activity concentration (AC50) is 39.8 µM [falling, single point].

By AC50 is commonly meant the midpoint of the concentration-response curve, whichever way the signal moves.
